# Assay results from PubChem BioAssay AID2685 (National Center for Advancing Translational Sciences (NCATS), 2010).
# The other results are listed elsewhere or left out. The main result of the screen is listed elsewhere. These columns were measured beside it and carry no call. Most of these compounds were active or inconclusive in the main read-out, so they are no random draw. Potencies come from curve fits of mixed quality, noted in brackets.
# Experiment: qHTS Assay for Lipid Storage Modulators in Drosophila S3 Cells;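 for cell number change: cells counted by Cell Tracker Red CMTPX staining in the red channel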
# Conditions: BODIPY lipid droplet fluorescence, 18-24 h; for cell number change: measured here: cell count max response, cells fed with added oleic acid
# Procedure, shortened: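 Laser-scanning cytometry quantifies lipid droplet accumulation (500–530 nm total intensity; droplet/cell object ratio) in oleic acid-fed (400 uM added) Drosophila S3 cells treated with a concentration series. 20 uM Triacsin C defined 100% inhibition.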
# [1] = measured here: cell number channel AC50, cells fed with added oleic acid
# [2] = measured here: lipid fluorescence (Fed channel) AC50, cells fed with added oleic acid
SMILES,cell number change [%],AC50 [1],AC50 [2]
O=C(Cc1ccc(S(=O)(=O)N2CCOCC2)s1)Oc1ccc(F)cc1,100,"29.1 µM [rising, single point]",
CCOC(=O)C(C)Oc1cccc2c(=O)n(CC(=O)Nc3ccc4c(c3)OCCO4)ccc12 (stereo not given),-34.7,,
O=C(CCC(=O)NNC(=O)c1ccc(Cl)cc1Cl)NCc1ccccc1,12,"2.06 µM [rising, partial curve, poor fit]","1.64 µM [rising, partial curve, poor fit]"
CC(CNc1ccc([N+](=O)[O-])cc1)NC(=O)c1ccccc1Br (stereo not given),58.3,"29.1 µM [rising, single point]",
Cc1cc(N2CCC(C)CC2)n2ncc(-c3ccccc3)c2n1,30.3,"29.1 µM [rising, single point]",
CCCNC(=O)C(Cc1ccccc1F)NC(=O)c1ccc(C#N)cc1 (stereo not given),-10,,"32.6 µM [rising, single point]"
COc1ccc(NC(=O)c2oc3ccccc3c2NC(=O)COc2ccccc2OC)c(OC)c1,-20.2,,"0.00461 µM [falling, full curve, poor fit]"
CN1OC(COC(=O)c2ccccc2)CC1c1ccccc1 (stereo not given),7.85,,"1.16 µM [falling, full curve, poor fit]"
CN(C)CCOC(C1CCCCC1)C1CCCCC1,8.68,,"20.6 µM [rising, single point]"
CN1CCN(C(=O)CCc2nc3ccccc3c(=O)[nH]2)CC1,-28.3,"3.26 µM [falling, full curve, poor fit]","25.9 µM [falling, single point]"
Fc1ccc(-n2ncc3c(SCc4cccnc4)ncnc32)cc1,,,"29.1 µM [falling, single point]"
Cn1nnnc1SCc1ccc(Cl)cc1,32.2,"2.59 µM [rising, partial curve]",
CCN(CC(=O)Nc1c(F)cccc1F)C(=O)CNC(=O)c1sc2ccccc2c1Cl,-3.68,,"23.1 µM [falling, partial curve, poor fit]"
CCN(CC)S(=O)(=O)c1cc(C(=O)Nc2cc(C)on2)ccc1Cl,21.8,,"0.116 µM [falling, single point]"
Cc1nc(SCC#N)c2c3c(sc2n1)CCC3,3.52,,"0.82 µM [rising, single point]"
CN(CC(=O)Nc1cccc(F)c1)C(=O)C1CC(=O)N(Cc2ccco2)C1 (stereo not given),2.99,,"29.1 µM [falling, single point]"
CCCCc1nnc(NC(=O)C(C)Sc2nc(N)cc(=O)[nH]2)s1 (stereo not given),24,,"6.51 µM [falling, single point]"
O=C(O)CC1NCCc2ccccc21 (stereo not given),-9.78,,"0.58 µM [falling, single point]"
O=C(O)c1ccc(-n2nnnc2SCc2ccccc2F)cc1,-36.7,"4.61 µM [falling, single point]","6.51 µM [falling, partial curve, poor fit]"
CCn1cc(C(=O)OCC(=O)Nc2cccc(C)c2)c(=O)c2ccc(C)nc21,16.7,,

SMILES,cell number change [%],AC50 [1],AC50 [2]
CC(=O)Oc1ccc(N(C(C)=O)S(=O)(=O)c2ccc3ccccc3c2)cc1,-21.3,,"0.231 µM [falling, full curve, poor fit]"
CCCS(=O)(=O)c1ccc(COC(=O)c2cccc(NC(=O)C(C)C)c2)cc1,2.7,,"5.62 µM [falling, single point]"
CSCC[C@H](NC(=O)[C@@H]1CSC2c3ccccc3C(=O)N21)C(=O)N1CCC[C@H]1CO (stereo not given in full),-7.77,,"18.4 µM [rising, single point]"
Cc1cccc(NC(=S)NCCc2ccc3c(c2)OCCO3)c1C,,"0.082 µM [falling, full curve, poor fit]","0.651 µM [falling, full curve]"
O=[N+]([O-])c1ccc(OCC(O)CN2CCN(c3ccccc3F)CC2)cc1 (stereo not given),12.5,,"8.2 µM [rising, partial curve, poor fit]"
CN(Cc1ccco1)Cc1ccc(O)c2ncccc12,-16.2,,"0.13 µM [falling, full curve, poor fit]"
O=C(CNC(=O)c1ccccc1)OCc1nnc(-c2ccc(Cl)cc2)o1,-67.9,,
CN(CC(=O)Nc1ccc(F)c(F)c1F)C(=O)c1ccc2c(c1)S(=O)(=O)N=C1CCCCCN12,31.3,"16.4 µM [rising, single point]",
COc1ccc(OC)c(CNC(=O)c2coc(=O)c3ccccc23)c1,27.6,,
CCn1c(=O)c2cc(C(=O)Nc3ccc(OC)cc3OC)sc2c2ccccc21,34,"0.184 µM [rising, full curve, poor fit]","0.0731 µM [rising, full curve, poor fit]"
COc1ccc(S(=O)(=O)NC(C)C(=O)NCCN2CCOCC2)cc1Cl (stereo not given),-14.3,,"29.1 µM [falling, single point]"
COc1ccccc1N=C(C)C1=C(O)COC1=O,6.72,,
Cc1ccc(CNC(=O)C2CNc3cc(C)ccc3O2)cc1 (stereo not given),-4.74,,
O=C(Nc1ccc(N2CCCCC2)cc1)c1cc([N+](=O)[O-])cc([N+](=O)[O-])c1,-3.66,,
CC(C)C[C@@H](CSc1ccccc1)N1CCN(C)CCC1=O,5.5,,"23.1 µM [falling, single point]"
COc1ccc(C(CNc2ccc(C(F)(F)F)cn2)N(C)C)cc1OC (stereo not given),,"6.51 µM [rising, single point]","6.51 µM [rising, single point]"
CC(C)(C)c1cc(-n2ccnc2)n2ncc(-c3ccc(Cl)cc3)c2n1,21,,"0.517 µM [rising, partial curve]"
CCOC(=O)C(C(=O)OCC)C(C(=O)OCC)N1CCOCC1 (stereo not given),5.27,,"29.1 µM [falling, single point]"
O=C(NCc1ccccc1)c1nc[nH]c1C(=O)N1CCc2ccccc2C1,11.9,"6.51 µM [falling, single point]","4.11 µM [rising, single point]"

# Structural class: the entries above with four or more nitrogen atoms (10)
SMILES,cell number change [%],AC50 [1],AC50 [2]
Cc1cc(N2CCC(C)CC2)n2ncc(-c3ccccc3)c2n1,30.3,"29.1 µM [rising, single point]",
CN1CCN(C(=O)CCc2nc3ccccc3c(=O)[nH]2)CC1,-28.3,"3.26 µM [falling, full curve, poor fit]","25.9 µM [falling, single point]"
Fc1ccc(-n2ncc3c(SCc4cccnc4)ncnc32)cc1,,,"29.1 µM [falling, single point]"
Cn1nnnc1SCc1ccc(Cl)cc1,32.2,"2.59 µM [rising, partial curve]",
CCCCc1nnc(NC(=O)C(C)Sc2nc(N)cc(=O)[nH]2)s1 (stereo not given),24,,"6.51 µM [falling, single point]"
O=C(O)c1ccc(-n2nnnc2SCc2ccccc2F)cc1,-36.7,"4.61 µM [falling, single point]","6.51 µM [falling, partial curve, poor fit]"
CN(CC(=O)Nc1ccc(F)c(F)c1F)C(=O)c1ccc2c(c1)S(=O)(=O)N=C1CCCCCN12,31.3,"16.4 µM [rising, single point]",
O=C(Nc1ccc(N2CCCCC2)cc1)c1cc([N+](=O)[O-])cc([N+](=O)[O-])c1,-3.66,,
CC(C)(C)c1cc(-n2ccnc2)n2ncc(-c3ccc(Cl)cc3)c2n1,21,,"0.517 µM [rising, partial curve]"
O=C(NCc1ccccc1)c1nc[nH]c1C(=O)N1CCc2ccccc2C1,11.9,"6.51 µM [falling, single point]","4.11 µM [rising, single point]"
